Record: PubChem BioAssay AID1259300 (Sanger Institute, 2017)
Screen: 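siRNA screen of kinases and common colorectal cancer mutant genes, alone or with drugs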 (primary screen). Cell system: HCT15 colorectal cancer cells. Reagents: siRNA pool against human genes. Challenge: anchor drug or DMSO vehicle added 24 h after seeding: BYL719 1 µM, cetuximab 5 µg/ml, trametinib 10 nM; drug doses chosen to barely affect viability alone. Measurement: 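Replicate-mean viability relative to non-targeting pool control with robust z-score for knock-down without drug; per-drug synergy scores for BYL719 (1 µM), cetuximab (5 µg/ml), trametinib (10 nM)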. Direction: viability z-score, siRNA alone: higher = more viable cells after knock-down; viability vs non-targeting, siRNA alone: higher = more viable cells; synergy score with BYL719 and synergy score with cetuximab and synergy score with trametinib: higher = stronger synergy of knock-down with drug. Rule for the call: 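Called active (essential) if viability z-score with knock-down alone falls below -3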. Calls: active = essential: knock-down alone lowers viability (z below -3); inactive = no strong viability loss with knock-down alone.
Here is an unselected part of 794 deposited reagents. 18 of them (2.3%) count as active. 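Calls rest on knock-down alone, not drug synergy; depositor treated synergy scores above 0.15 as synergistic; drug doses alone had little viability effect.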 Unmarked entries are inactive. Viability is capped at 1. No sequences are given here. Not given: the amount of reagent, the time to read-out.

gene,"viability z-score, siRNA alone","viability vs non-targeting, siRNA alone",synergy score with BYL719,synergy score with cetuximab,synergy score with trametinib
DGKH (diacylglycerol kinase eta),-0.0372,0.952,0.119,-0.0199,-0.0339
DGKD (diacylglycerol kinase delta),-0.131,0.945,0.0992,-0.0549,-0.0653
VRK1 (VRK serine/threonine kinase 1),-1.39,0.854,0.02,-0.0837,0.0352
CHD4 (chromodomain helicase DNA binding protein 4),-3.94 (active),0.668,-0.175,-0.0822,-0.162
TGFBR2 (transforming growth factor beta receptor 2),-0.305,0.932,0.052,0.00611,-0.0356
NEK7 (NIMA related kinase 7),0.625,1,0.123,0.0299,-0.0984
COASY (Coenzyme A synthase),-1.87,0.818,0.195,0.0454,0.00486
NEK11 (NIMA related kinase 11),-1.13,0.873,0.178,-0.101,0.0284
EPHA4 (EPH receptor A4),0.321,0.978,0.111,0.0618,0.0557
ULK4 (unc-51 like kinase 4),-3.06 (active),0.732,0.0264,-0.179,-0.135
GOLGA5 (golgin A5),0.222,0.971,0.0642,-0.00769,-0.0271
AXL (AXL receptor tyrosine kinase),0.181,0.968,0.236,-0.02,0.0195
ZAP70 (zeta chain of T cell receptor associated protein kinase 70),0.625,1,0.164,0.0567,0.108
CLSPN (claspin),-0.108,0.947,0.141,0.0411,0.00279
ITSN1 (intersectin 1),0.453,0.988,0.15,0.0789,0.0237
"CKMT1B (creatine kinase, mitochondrial 1B)",-0.213,0.939,0.145,0.0444,0.0448
NAGK (N-acetylglucosamine kinase),-0.0341,0.952,0.161,0.108,-0.0846
PRKCQ (protein kinase C theta),0.619,1,0.125,0.0898,0.102
"ROS1 (ROS proto-oncogene 1, receptor tyrosine kinase)",0.47,0.989,-0.0459,0.0141,0.0422
RPS6KA4 (ribosomal protein S6 kinase A4),0.622,1,0.0768,0.0967,-0.0506

Continued (3 carried over from the part before).
gene,"viability z-score, siRNA alone","viability vs non-targeting, siRNA alone",synergy score with BYL719,synergy score with cetuximab,synergy score with trametinib
PRKCQ (protein kinase C theta),0.619,1,0.125,0.0898,0.102
"ROS1 (ROS proto-oncogene 1, receptor tyrosine kinase)",0.47,0.989,-0.0459,0.0141,0.0422
RPS6KA4 (ribosomal protein S6 kinase A4),0.622,1,0.0768,0.0967,-0.0506
TSSK2 (testis specific serine kinase 2),0.315,0.978,0.254,0.0355,0.112
PANK2 (pantothenate kinase 2),0.625,1,0.254,0.0422,-0.0782
PIK3C3 (phosphatidylinositol 3-kinase catalytic subunit type 3),0.625,1,0.101,0.096,-0.0109
MPP2 (MAGUK p55 scaffold protein 2),0.625,1,0.248,0.00537,0.0902
CDKN2B (cyclin dependent kinase inhibitor 2B),0.625,1,0.127,0.106,-0.0984
DAPK1 (death associated protein kinase 1),-0.773,0.898,0.0562,0.0374,-0.164
CAD,0.625,1,0.138,0.068,0.0327
PTK7 (protein tyrosine kinase 7 (inactive)),-1.49,0.846,0.233,0.162,0.0577
SRMS,0.625,1,0.285,0.121,-0.0603
STAG2 (STAG2 cohesin complex component),0.0828,0.961,-0.121,-0.0394,-0.099
"RAF1 (Raf-1 proto-oncogene, serine/threonine kinase)",-0.141,0.944,0.0737,0.0714,-0.0689
PKN3 (protein kinase N3),0.225,0.971,0.0393,0.00573,-0.118
CSF1R (colony stimulating factor 1 receptor),0.222,0.971,-0.014,0.118,0.029
PDK3 (pyruvate dehydrogenase kinase 3),-0.063,0.95,0.17,-0.0363,-0.122
DMPK (DM1 protein kinase),0.292,0.976,0.0866,-0.0242,0.0693
EIF2AK4 (eukaryotic translation initiation factor 2 alpha kinase 4),0.567,0.996,0.113,0.132,-0.102
PRKAR2B,-0.88,0.891,0.292,0.0344,0.0858
MAGI3,0.625,1,0.126,0.0109,-0.0984
PAK1 (p21 (RAC1) activated kinase 1),0.237,0.972,0.282,0.152,-0.0574
CDK18 (cyclin dependent kinase 18),-5.21 (active),0.575,-0.179,-0.176,-0.117
MAP3K6 (mitogen-activated protein kinase kinase kinase 6),0.625,1,0.127,0.0324,-0.0929
STK25 (serine/threonine kinase 25),-0.649,0.907,0.0966,-0.0926,-0.13
TPK1 (thiamin pyrophosphokinase 1),-0.369,0.928,0.0363,0.0737,-0.063
"RELA (RELA proto-oncogene, NF-kB subunit)",0.422,0.985,0.146,0.0203,-0.049
AK2 (adenylate kinase 2),0.625,1,0.0766,0,-0.0057
SIK2 (salt inducible kinase 2),-0.339,0.93,0.0355,-0.00956,-0.105
FLT3 (fms related receptor tyrosine kinase 3),0.625,1,0.192,0,0.00832
MAGI2,-0.804,0.896,0.0752,0.0689,-0.162
PLK1 (polo like kinase 1),-5.77 (active),0.535,0.096,0.159,0.113
"PKDCC (protein kinase domain containing, cytoplasmic)",0.625,1,0.115,0.0232,-0.00208
